Reference: PubChem BioAssay AID493014 (National Center for Advancing Translational Sciences (NCATS), 2011)
Out of some 340,000 compounds screened, about 170 (0.05%) were called active. This list was built around the results that the source calls inconclusive (neither active nor inactive); the mix of calls is not that of the screen. The call rests on the fitted dose curve; in most records, active means well fitted inhibition curve with a large enough effect in the signal ratio, with a control signal flat (not every such curve was filed as active); inconclusive means small, poorly fitted or top-dose-only effect, or effect the other way, or a change in a side signal; inactive means flat fitted curve, though single readings scatter; the % refers to the signal ratio. A potency beside an inconclusive call is a rough fit, not a confirmed value.

Assay: qHTS Assay to Find Inhibitors of Chronic Active B-Cell Receptor Signaling;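 on activity change, negative = inhibition: plate controls were basal doxycycline-induced cells for no effect and cells given 10 µM MG132 for full effect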
Details: ABC-DLBCL IkBa-CBG/CBR reporter, luminescence ratio (green luciferase fused to IkBa over red control in TMD8 lymphoma cells), 4 h; activity change, negative = inhibition: at 46.1 µM (top of the series)
Procedure, shortened: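 Cell line TMD8 (human ABC DLBCL), stably expressing tet-inducible CBG68-IkBa fusion and CBR; IMDM/0.5% FBS; cpd up to 46 uM; dox induction, 4 h, 37C/5% CO2; dual luminescence; green/red ratio; MG132 control.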
Potency means the concentration at half of the fitted maximal effect.

For `N=c1n(Cc2ccccc2)c2ccccc2n1CC(O)COc1ccc(Cl)cc1Cl` (stereo not given), which Potency is on record?
Its Potency is inconclusive: 20 µM [falling, partial curve, poor fit].

Which “activity change, negative = inhibition” value does the source give for `Clc1ccc(-c2nc(-c3ccccn3)no2)cc1Cl` here?
The value was inactive: 2.47%.

Which “activity change, negative = inhibition” value does the source give for `CC(NC(=O)Cc1ccccc1)C(c1ccccc1)N1CCOCC1` (stereo not given) here?
The value was inactive: 5.67%.

Which Potency does the source give for `Cc1cccc(C(=O)Nc2nnc(C3=COCCO3)o2)c1` here?
Its Potency is inconclusive: 31.6 µM [cytotoxic, single point].

For `Cc1cccc(N2CCN(C(=O)c3cc(S(=O)(=O)N4CCOCC4)cn3C)CC2C)c1` (stereo not given), which “activity change, negative = inhibition” value is on record?
The value was inactive: 1.49%.

With `C=CCOc1ccc(/C=C2\SC(=S)N(NS(=O)(=O)c3ccccc3)C2=O)cc1` as the compound, how does the “activity change, negative = inhibition” value read?
Its value is inactive: 9.48%.

For `CC(C)(C)C1CCc2nc(NC(=O)Cc3cn4ccsc4n3)sc2C1` (stereo not given), which activity change, negative = inhibition is on record?
The activity change, negative = inhibition was inconclusive: 16.8%.

With `CCOC(=O)c1ccc(N=Nc2c(C)c(C#N)c(O)[nH]c2=O)cc1` as the compound, how does the “activity change, negative = inhibition” value read?
The value was inactive: 11.6%.

For `CCOC(=O)c1cc2c(=O)[nH]c(C(Cl)(Cl)Cl)nc2o1`, which Potency is on record?
Its Potency is inconclusive: 35.5 µM [falling, single point].

With `C/C=C/c1ccc(OCCCCOc2c(OC)cccc2OC)c(OC)c1` as the compound, how does the activity change, negative = inhibition read?
The activity change, negative = inhibition was inconclusive: 13.5%.

With `O=[N+]([O-])c1cccc(/C=C/c2nc3ccc([N+](=O)[O-])cc3[nH]2)c1` as the compound, how does the activity change, negative = inhibition read?
Its activity change, negative = inhibition is inconclusive: 12.6%.

Which activity change, negative = inhibition does the source give for `Cc1c(C(=O)NC2=NCCS2)oc2ccccc12` here?
The activity change, negative = inhibition was inconclusive: -5.69%.

For `N#Cc1ccc(N[C@@H]2CCN3C(=O)c4ccccc4[C@@H]3C[C@H]2O)cc1`, which “activity change, negative = inhibition” value is on record?
Its value is inactive: -0.674%.

With `COCCCN1C(=O)c2[nH]nc(-c3ccccc3O)c2C1c1cccc(Cl)c1` (stereo not given) as the compound, how does the Potency read?
Its Potency is inconclusive: 25.1 µM [falling, partial curve, poor fit].

Which activity change, negative = inhibition does the source give for `COc1cccc(C(=O)Nc2c3c(nn2-c2cccc(C)c2C)CS(=O)C3)c1OC` (stereo not given) here?
Its activity change, negative = inhibition is inconclusive: -7.57%.

With `O=C1CSC(c2ccccn2)N1c1ccccc1` (stereo not given) as the compound, how does the activity change, negative = inhibition read?
The activity change, negative = inhibition was inconclusive: -5.23%.

With `Cc1ccccc1C(=O)Nc1nnc(-c2ccncc2)o1` as the compound, how does the activity change, negative = inhibition read?
The activity change, negative = inhibition was inconclusive: -110%.

With `Cc1cc(=O)n2[nH]c(SCc3ccccc3)nc2n1` as the compound, how does the Potency read?
Its Potency is inconclusive: 29.1 µM [rising, single point].

For `COc1cccc(NC(=O)C(=S)NC2CCCCC2)c1`, which Potency is on record?
The Potency was inconclusive: 15.8 µM [falling, partial curve].

Which activity change, negative = inhibition does the source give for `CC1CCCC(NC(=S)Nc2cccc(S(=O)(=O)N(C)C)c2)C1C` (stereo not given) here?
Its activity change, negative = inhibition is inconclusive: -0.373%.

With `Cc1ccc(S(=O)(=O)Nc2ccc3c(c2)nc(CCN2CCCCC2)n3C)cc1` as the compound, how does the “activity change, negative = inhibition” value read?
The value was inactive: -0.712%.

For `COCCNC(C(=O)Nc1ccc([N+](=O)[O-])cc1Br)c1ccccc1` (stereo not given), which “activity change, negative = inhibition” value is on record?
The value was inactive: -2.52%.

For `CN(C)C(=O)CSc1nnc(-c2cccs2)n1-c1ccccc1`, which activity change, negative = inhibition is on record?
Its activity change, negative = inhibition is inconclusive: -1.1%.

Which “activity change, negative = inhibition” value does the source give for `CS(=O)(=O)N1CCCC(C(=O)Nc2c(F)cccc2F)C1` (stereo not given) here?
Its value is inactive: 2.25%.

With `S=C(NCc1ccc2c(c1)OCO2)NCc1ccco1` as the compound, how does the activity change, negative = inhibition read?
Its activity change, negative = inhibition is inconclusive: -9.85%.

Which activity change, negative = inhibition does the source give for `CC(=O)OCC(=O)[C@@]1(OC(C)=O)[C@@H](C)C[C@H]2[C@@H]3C[C@H](F)C4=CC(=O)C=C[C@]4(C)[C@@]3(F)[C@@H](O)C[C@@]21C` here?
Its activity change, negative = inhibition is inconclusive: 1.35%.

For `CCn1c(=N)n(CC(O)COc2cccc(C)c2)c2ccccc21` (stereo not given), which Potency is on record?
Its Potency is inconclusive: 29.1 µM [falling, single point].

Which “activity change, negative = inhibition” value does the source give for `COc1ccc(C(CNC(=O)c2ccc(N3CCCC3=O)cc2)N(C)C)cc1` (stereo not given) here?
The value was inactive: -1.72%.

With `Cc1cccc(N2CCN(C(=O)CNC(=O)C3CCCCC3)CC2)c1C` as the compound, how does the “activity change, negative = inhibition” value read?
Its value is inactive: 1.7%.

With `CCSC1=C(C#N)C(=O)n2c1cc1c2CCCC1` as the compound, how does the activity change, negative = inhibition read?
The activity change, negative = inhibition was inconclusive: 0.858%.

Which activity change, negative = inhibition does the source give for `[O-]/[N+](=C/c1ccco1)c1ccccc1` here?
The activity change, negative = inhibition was inconclusive: -28.6%.

With `Cc1c2ccccc2c(C)c2c1ccc1ccccc12` as the compound, how does the activity change, negative = inhibition read?
The activity change, negative = inhibition was inconclusive: 19.7%.

For `COc1ccc(-c2nn(-c3ccccc3C)cc2CNC(C)c2cn(C)nc2C)cc1F` (stereo not given), which activity change, negative = inhibition is on record?
Its activity change, negative = inhibition is inconclusive: -10.7%.

Which “activity change, negative = inhibition” value does the source give for `O=C(C[n+]1cc(Br)cc2ccccc21)c1ccc(Br)cc1` here?
Its value is inactive: 7.25%.

Which Potency does the source give for `CCN(CC)CCCCNc1ncc2cc(-c3cc(OC)cc(OC)c3)c(NC(=O)NC(C)(C)C)nc2n1` here?
Its Potency is inconclusive: 3.98 µM [falling, full curve, poor fit].

With `O=C(Nc1cccc(Cl)c1Cl)C1CC(=O)N(c2ccc(Br)cc2)C1` (stereo not given) as the compound, how does the activity change, negative = inhibition read?
Its activity change, negative = inhibition is inconclusive: 16.3%.

Which activity change, negative = inhibition does the source give for `Cc1ccc(Cn2nc(C)cc2C(=O)Nc2ccc(Cl)cc2)cc1` here?
Its activity change, negative = inhibition is inconclusive: -6.31%.

Which “activity change, negative = inhibition” value does the source give for `Cc1noc(C)c1C(=O)N1CCCC(C(=O)c2ccc(Cl)cc2)C1` (stereo not given) here?
Its value is inactive: 7.3%.

For `O=C(Nc1cccc(S(=O)(=O)N2CCCCC2)c1)c1ccc2ncsc2c1`, which Potency is on record?
The Potency was inconclusive: 20 µM [falling, partial curve].

For `CCCCn1c(N)c(N(CC(C)C)C(=O)C2=NN(c3ccccc3)C(=O)CC2)c(=O)[nH]c1=O`, which activity change, negative = inhibition is on record?
The activity change, negative = inhibition was inconclusive: 9.36%.
